No constants are given. Whether binding was seen depends on the method and setting. Binding seen in cells or lysates may run through a third protein. A yes stands for co-enrichment or nearness to the bait. Other partners may have been found. Where a sequence is shown, tags or fusion partners need not be part of it.
B1: BRCA associated protein-1 (BAP1) (protein, UniProt Q99PU7 1-728)
chain: MNKGWLELESDPGLFTLLVEDFGVKGVQVEEIYDLQSKCQGPVYGFIFLFKWIEERRSRRKVSTLVDDTSVIDDDIVNNMFFAHQLIPNSCATHALLSVLLNCSNVDLGPTLSRMKDFTKGFSPESKGYAIGNAPELAKAHNSHARPEPRHLPEKQNGLSAVRTMEAFHFVSYVPITGRLFELDGLKVYPIDHGPWGEDEEWTDKARRVIMERIGLATAGEPYHDIRFNLMAVVPDRRIKYETRLHVLKVNRQTVLEALQQLIRVTQPELIQTHKSQESQLPEESKPASSKSPLGLEAGRTPVASECTQTDGAEEVAGSCPQTTTHSPPSKCKLVVKPPGSSLNGVPPNPAPIVQRLPAFLDNHNYAKSPMQEEEDLAAGVGRSRVPVRAPQQYSEDEDDYEDEDEDVQNTNPAIRYKRKGTGKPGSLSNSSDGQLSVLQPNTINVLTEKLQESQKDLSVPLSIKTSSGAGSPAVAVPTHSQPSPTPSNESTDTASEIGSAFNSPLRSPIRSANPTRPSSPVTSHISKVLFGEDDSLLRVDCIRYNRAVRDLGPVISTGLLHLAEDGVLSPLALTEGGKGSSPSTRSSQGSQGSSGLEEKEVVEVTESRDKPGLNRSSEPLSGEKYSPKELLALLKCVEAEIANYEACLKEEVEKRKKFKIDDQRRTHNYDEFICTFISMLAQEGMLANLVEQNISVRRRQGVSIGRLHKQRKPDRRKRSRPYKAKRQ
B2: TBL1X (protein, UniProt Q9QXE7 1-527)
chain: MSITSDEVNFLVYRYLQESGFSHSAFTFGIESHISQSNINGTLVPPAALISILQKGLQYVEAEISINEDGTVFDGRPIESLSLIDAVMPDVVQTRQQAFREKLAQQQANAAAAAAAAAATATSTAATTPAAAAQQNPPKNGEATVNGEENGAHAINNHSKPMEIDGDVEIPPSKATVLRGHESEVFICAWNPVSDLLASGSGDSTARIWNLNENSNGGSTQLVLRHCIREGGHDVPSNKDVTSLDWNSDGTLLATGSYDGFARIWTEDGNLASTLGQHKGPIFALKWNKKGNYILSAGVDKTTIIWDAHTGEAKQQFPFHSAPALDVDWQNNTTFASCSTDMCIHVCRLGCDRPVKTFQGHTNEVNAIKWDPSGMLLASCSDDMTLKIWSMKQDACVHDLQAHSKEIYTIKWSPTGPATSNPNSNIMLASASFDSTVRLWDVERGVCIHTLTKHQEPVYSVAFSPDGKYLASGSFDKCVHIWNTQSGSLVHSYRGTGGIFEVCWNARGDKVGASASDGSVCVLDLRK
B3: TBL1XR1 (protein, UniProt Q8BHJ5 1-514)
chain: MSISSDEVNFLVYRYLQESGFSHSAFTFGIESHISQSNINGALVPPAALISIIQKGLQYVEAEVSINEDGTLFDGRPIESLSLIDAVMPDVVQTRQQAYRDKLAQQHAAAAAAAAAATNQQGSAKNGENTANGEENGAHTIANNHTDMMEVDGDVEIPSNKAVVLRGHESEVFICAWNPVSDLLASGSGDSTARIWNLSENSTSGPTQLVLRHCIREGGQDVPSNKDVTSLDWNSEGTLLATGSYDGFARIWTKDGNLASTLGQHKGPIFALKWNKKGNFILSAGVDKTTIIWDAHTGEAKQQFPFHSAPALDVDWQSNNTFASCSTDMCIHVCKLGQDRPIKTFQGHTNEVNAIKWDPTGNLLASCSDDMTLKIWSMKQDNCVHDLQAHNKEIYTIKWSPTGPGTNNPNANLMLASASFDSTVRLWDVDRGICIHTLTKHQEPVYSVAFSPDGRYLASGSFDKCVHIWNTQTGALVHSYRGTGGIFEVCWNAAGDKVGASASDGSVCVLDLRK
B4: Lysine demethylase 1B (KDM1B) (protein, UniProt Q8CIG3 1-826)
chain: MAASRGRSKKRSNLELSPDNLPLRSSGRQAKKKAVEIPDEDEDGSSEKKYRKCEKAGCTAAYPVCFASASERCAKNGYTSRWYHLSCGEHFCNECFDHYYRSHKDGYDKYSAWKRVWTSNGKTEPSPKAFMADQQLPYWVQCTKPECGKWRQLTKEIQLTPHMARTYRCGMKPNTITKPDTPDHCSFPEDLRVLEVSNHWWYPMLIQPPLLKDSVAAPLLSAYYPDCVGMSPSCTSTHRATVTAATTTTGSASPGEMEPSKAAPSSLVLGMNRYFQPFYQPNECGKALCVRPDVMELDELYEFPEYSRDPTMYLALRNLILALWYTNCKEALTPQKCIPHIIVRGLVRIRCVQEVERILYFMTRKGLINTGVLTVAAGQHLLPKHYHNKSVLVVGAGPAGLAAARQLHNFGMKVTVLEAKDRIGGRVWDDKSFKGVVVGRGPQIVNGCINNPVALMCEQLGISMRKLGERCDLIQEGGRITDPTVDKRMDFHFNALLDVVSEWRKDKTLLQDVPLGEKIEEIYRAFVKESGIQFSELEGQVLQFHLSNLEYACGSSLHQVSARSWDHNEFFAQFAGDHTLLTPGYSTIIEKLAEGLDIRLKSPVQSIDYTGDEVQVTTTDGMGHSAQKVLVTVPLAILQRGAIQFNPPLSEKKMKAINSLGAGIIEKIALQFPYRFWDSKVQGADFFGHVPPSASQRGLFAVFYDMDSQQSVLMSVITGEAVASLRTMDDKQVLQQCMGILRELFKEQEIPEPTKYFVTRWSTEPWIQMAYSFVKTFGSGEAYDIIAEEIQGTVFFAGEATNRHFPQTVTGAYLSGVREASKIAAF
B5: ASXL Transcriptional Regulator 2 (ASXL2) (protein, UniProt Q8BZ32 1-1370)
chain: MREKGRRKKGRTWAEAAKTVLEKYPNTPMSHKEILQVIQREGLKEIRSGTSPLACLNAMLHTNSRGEEGIFYKVPGRMGVYTLKKDVPDGVKELSECSEESSDGQSDSHSSDNSSSSDGGSNKEGRKSRWKRKVSSRLSHPPSPPSGCPSPTIPASKVISPSQKHSKKALKQALKQQQQKKKQQQCRPSMSISNQHLSLKTVKAASDSVPAKPGQMKRTKCADIDVETPDSILVNTNLRALINKHTFSVLPGDCQQRLLLLLPEVDRQVGPDGLMKLNGSALNNEFFTSAAQGWKERLSEGEFTPEMQVRIRQEIEKEKKVELWKEQFFENYYGQSSGLSLEDSQKLTASSSDPKAKKTPAEQPKSILPSEASPVRIVPVVPQSECKEEAVQIPSPSQKEENQDEARPDSKSPEPVLASASNTNELITMKPIKSPKDEGLLEQKPVACAEQESEKENHVTTTSRNNKSENQEALAISPSKSKNAGLQKPIIKPVAEASPLNPDMKMPPATVTDQIQESLKRKSSLTDEEATSSWEKRPRITENRQHQQPFQVSPQPFLNRGDRVQVRKVPPLKIPVSRISPMLFSTSQVSPRARFPISITSPYRTGARTLADIKAKAQLVEAQKAAAAAAAAAAAAASVGGTIPGPGPGGGQSPREGGERKIAGGGSAGSDPVSTNGKGPTLELAGTGSRGGTRELLPCGPQPETNMPGQAQPPGISGAQLQQTSSVPTGLASSGACTSVPLPAHIEISNSEKPNLHKATATAASPCHLQDPRSCRLEKALSPTGPPLISGASTVYFVADGTVEPKAGSNKNAPKPSALAKTTAPAPLDMTSSPVTTASLEKLPVPQISGTATSTGSAPSSSTLPAASSLKTPGTSANMNGPISRTSSSIPANNPLVTQLLQGKDVPLEQILPKPLTKIEMKTVPLTTKEEKGIGIFPGISVMESSSREEVNGRQAHLAIPQLGKPLQSKQLSQVPRPVFTAKDRKDPCIDTHQYREGLSKTTQDQLFQTLIQRAQRQSVLSFVPPSQFNFAHSGFHLEDISTSQKFMLGFAGRRTSKPAMAGHYLLNISTYGRGTENIKRTHSVNPDDRFCLSSPTEALRMGHADYKNTTGEISSKEDESDEDRVGDEQEPISVKEEPWASQSSGRHPHHGEASSTNDCLASKNGKTEAPVSEQTTLGQENYIFSRGQASDEKSLPRDFIPAAHKQMTHAVRGKTVCSSPELFNSTALSLPADSPTHQPLLLPPLQTPKLYGSPTQIGPSYRGMINVSTSSDMDHNSAIPGSQVSSNVGDVMSFSVTVTTIPASQAMNPSSHGQTIPVQTFPDDNSIEDTPSKCYCRLKAMIMCKGCGAFCHDDCIGPSKLCVSCLVVR

target: T1, 3xFLAG-BirA*-tagged TCF7L1 at the endogenous TCF7L1 locus (mouse (endogenous in mESCs)) (UniProt Q9Z1J1); test: proximity labelling
T1 sequence: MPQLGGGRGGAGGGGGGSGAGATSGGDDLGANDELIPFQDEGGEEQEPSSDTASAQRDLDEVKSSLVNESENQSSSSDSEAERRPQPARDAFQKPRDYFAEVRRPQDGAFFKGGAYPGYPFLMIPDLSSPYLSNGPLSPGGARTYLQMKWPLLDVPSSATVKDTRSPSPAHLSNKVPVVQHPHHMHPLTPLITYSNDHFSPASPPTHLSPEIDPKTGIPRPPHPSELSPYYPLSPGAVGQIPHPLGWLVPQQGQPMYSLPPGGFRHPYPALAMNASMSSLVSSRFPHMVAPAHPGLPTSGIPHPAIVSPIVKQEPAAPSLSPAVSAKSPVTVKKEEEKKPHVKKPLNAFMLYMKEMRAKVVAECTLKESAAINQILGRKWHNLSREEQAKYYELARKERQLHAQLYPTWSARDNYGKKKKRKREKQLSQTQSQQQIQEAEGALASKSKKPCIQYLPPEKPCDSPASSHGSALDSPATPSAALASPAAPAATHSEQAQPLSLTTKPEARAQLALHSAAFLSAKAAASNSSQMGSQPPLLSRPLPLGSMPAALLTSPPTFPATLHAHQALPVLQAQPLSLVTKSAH

binding, binds:
B1
B2
B3
B4
B5

target: T2, dox-inducible 3xFLAG-BirA*-tagged TCF7L1 in the Rosa26 locus (UniProt Q9Z1J1); test: proximity labelling
T2 sequence: T1 sequence

binding, binds:
B1
B2
B3
B4
B5
